Data on two substances can be found in article PMC9977683, “IFNγ binding to extracellular matrix prevents fatal systemic toxicity” (Nature Immunology, 2023).

Protein sequences, listed by entry. Tags and fused reporters are not part of them. Lines headed by an entry give the natural chain unless they say otherwise; changes in a name come on top.
UniProt P01580: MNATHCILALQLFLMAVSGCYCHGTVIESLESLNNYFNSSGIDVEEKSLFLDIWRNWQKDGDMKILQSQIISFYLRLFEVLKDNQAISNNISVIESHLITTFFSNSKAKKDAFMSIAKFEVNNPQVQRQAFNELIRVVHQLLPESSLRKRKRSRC

For the test, the target named is T1, IFNγR1 extracellular domain (amino acids 26–254), recombinant (mouse) (UniProt P15261).
T1 sequence: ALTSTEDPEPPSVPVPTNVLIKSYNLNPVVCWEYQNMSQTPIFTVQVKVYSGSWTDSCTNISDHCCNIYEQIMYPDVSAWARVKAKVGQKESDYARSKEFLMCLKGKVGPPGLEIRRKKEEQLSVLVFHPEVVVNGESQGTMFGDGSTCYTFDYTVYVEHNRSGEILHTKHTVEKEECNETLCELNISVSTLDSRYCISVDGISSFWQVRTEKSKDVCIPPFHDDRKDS
Briefly: SPR; Biacore T200, CM4 chip coated with anti-His5 onto which recombinant IFNγR1 was immobilised; IFNγ variants injected over 180 s at 0, 1, 2.5, 5, 10, 25 and 50 nM; both purified. On the technique in general: Surface plasmon resonance follows binding to a sensor surface in real time, without labels.

These are yes or no findings as the source states them, for the method shown. Binding calls can cover weak binding; strength is not graded here.

As to “IFNγ^ΔKRKR, recombinant (IFNγ lacking the ECM-binding domain KRKR) (from UniProt P01580) (ligand)”, the binding result is “binds”.
Turning to “IFNγ^ΔKRKR–GFP fusion protein, recombinant (from UniProt P01580) (ligand)”, the binding entry is recorded as “binds”.
